Data: patent US11564971B2, “Hyaluronic acid derivative having amino acid and steryl group introduced thereinto” (CHUGAI SEIYAKU KABUSHIKI KAISHA, priority 2012, dated 2023)

Test: Encapsulation of paclitaxel: paclitaxel concentration (solubility) in supernatant (Example 6-1)
Assay type: physicochemical
Details: in the absence of HA derivatives; ultrapure water, 4° C. overnight

solubility of paclitaxel: 0.6 µg/mL
SMILES: CC(=O)O[C@H]1C(=O)[C@@]2(C)[C@H]([C@H](OC(=O)c3ccccc3)[C@]3(O)C[C@H](OC(=O)[C@H](O)[C@@H](NC(=O)c4ccccc4)c4ccccc4)C(C)=C1C3(C)C)[C@]1(OC(C)=O)CO[C@@H]1C[C@@H]2O [paclitaxel, Paclitaxel]
